Reference: publication PMC5520689
No constants are given. Whether binding was seen depends on the method and setting. Binding seen in cells or lysates may run through a third protein. Where a sequence is shown, tags or fusion partners need not be part of it.

Molecular target: T1, STAU1 (human (endogenous in the paper's human cell lines; line not stated for this experiment)), O95793
T1 chain: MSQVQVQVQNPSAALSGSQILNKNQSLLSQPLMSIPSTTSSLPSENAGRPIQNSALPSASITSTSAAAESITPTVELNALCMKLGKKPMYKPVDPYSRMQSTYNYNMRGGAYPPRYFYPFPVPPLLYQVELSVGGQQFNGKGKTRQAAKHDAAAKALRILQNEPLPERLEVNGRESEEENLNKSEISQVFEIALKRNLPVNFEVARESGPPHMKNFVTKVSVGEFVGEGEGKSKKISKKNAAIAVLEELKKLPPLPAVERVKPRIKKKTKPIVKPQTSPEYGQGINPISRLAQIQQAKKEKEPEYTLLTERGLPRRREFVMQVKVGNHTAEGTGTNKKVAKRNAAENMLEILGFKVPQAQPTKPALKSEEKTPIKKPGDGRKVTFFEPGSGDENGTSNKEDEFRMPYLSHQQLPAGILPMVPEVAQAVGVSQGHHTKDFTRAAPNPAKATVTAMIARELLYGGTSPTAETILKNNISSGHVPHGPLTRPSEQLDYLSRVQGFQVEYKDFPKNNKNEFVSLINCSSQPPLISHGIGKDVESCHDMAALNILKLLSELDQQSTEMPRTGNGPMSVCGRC
Experiment: co-IP; co-immunoprecipitation assay (Supplementary Figure S16); cell line, antibody and buffer not told in the main text
Details: remark: other sources report otherwise

binding: no binding
B1: ADAR1, P55265 1-1226 (enzyme)
chain: MNPRQGYSLSGYYTHPFQGYEHRQLRYQQPGPGSSPSSFLLKQIEFLKGQLPEAPVIGKQTPSLPPSLPGLRPRFPVLLASSTRGRQVDIRGVPRGVHLRSQGLQRGFQHPSPRGRSLPQRGVDCLSSHFQELSIYQDQEQRILKFLEELGEGKATTAHDLSGKLGTPKKEINRVLYSLAKKGKLQKEAGTPPLWKIAVSTQAWNQHSGVVRPDGHSQGAPNSDPSLEPEDRNSTSVSEDLLEPFIAVSAQAWNQHSGVVRPDSHSQGSPNSDPGLEPEDSNSTSALEDPLEFLDMAEIKEKICDYLFNVSDSSALNLAKNIGLTKARDINAVLIDMERQGDVYRQGTTPPIWHLTDKKRERMQIKRNTNSVPETAPAAIPETKRNAEFLTCNIPTSNASNNMVTTEKVENGQEPVIKLENRQEARPEPARLKPPVHYNGPSKAGYVDFENGQWATDDIPDDLNSIRAAPGEFRAIMEMPSFYSHGLPRCSPYKKLTECQLKNPISGLLEYAQFASQTCEFNMIEQSGPPHEPRFKFQVVINGREFPPAEAGSKKVAKQDAAMKAMTILLEEAKAKDSGKSEESSHYSTEKESEKTAESQTPTPSATSFFSGKSPVTTLLECMHKLGNSCEFRLLSKEGPAHEPKFQYCVAVGAQTFPSVSAPSKKVAKQMAAEEAMKALHGEATNSMASDNQPEGMISESLDNLESMMPNKVRKIGELVRYLNTNPVGGLLEYARSHGFAAEFKLVDQSGPPHEPKFVYQAKVGGRWFPAVCAHSKKQGKQEAADAALRVLIGENEKAERMGFTEVTPVTGASLRRTMLLLSRSPEAQPKTLPLTGSTFHDQIAMLSHRCFNTLTNSFQPSLLGRKILAAIIMKKDSEDMGVVVSLGTGNRCVKGDSLSLKGETVNDCHAEIISRRGFIRFLYSELMKYNSQTAKDSIFEPAKGGEKLQIKKTVSFHLYISTAPCGDGALFDKSCSDRAMESTESRHYPVFENPKQGKLRTKVENGEGTIPVESSDIVPTWDGIRLGERLRTMSCSDKILRWNVLGLQGALLTHFLQPIYLKSVTLGYLFSQGHLTRAICCRVTRDGSAFEDGLRHPFIVNHPKVGRVSIYDSKRQSGKTKETSVNWCLADGYDLEILDGTRGTVDGPRNELSRVSKKNIFLLFKKLCSFRYRRDLLRLSYGEAKKAARDYETAKNYFKKGLKDMGYGNWISKPQEEKNFYLCPV
